Data: patent publication US20210009982A1
No constants are given. Whether binding was seen depends on the method and setting. Some binding calls cover weakened binding; strength is not graded here. Sequences can lack the tags named with a protein.

Biological target: T1, mini cellulose-binding protein A (mCbpA) (Clostridium cellulovorans) (UniProt P38058)
T1 sequence (looked up): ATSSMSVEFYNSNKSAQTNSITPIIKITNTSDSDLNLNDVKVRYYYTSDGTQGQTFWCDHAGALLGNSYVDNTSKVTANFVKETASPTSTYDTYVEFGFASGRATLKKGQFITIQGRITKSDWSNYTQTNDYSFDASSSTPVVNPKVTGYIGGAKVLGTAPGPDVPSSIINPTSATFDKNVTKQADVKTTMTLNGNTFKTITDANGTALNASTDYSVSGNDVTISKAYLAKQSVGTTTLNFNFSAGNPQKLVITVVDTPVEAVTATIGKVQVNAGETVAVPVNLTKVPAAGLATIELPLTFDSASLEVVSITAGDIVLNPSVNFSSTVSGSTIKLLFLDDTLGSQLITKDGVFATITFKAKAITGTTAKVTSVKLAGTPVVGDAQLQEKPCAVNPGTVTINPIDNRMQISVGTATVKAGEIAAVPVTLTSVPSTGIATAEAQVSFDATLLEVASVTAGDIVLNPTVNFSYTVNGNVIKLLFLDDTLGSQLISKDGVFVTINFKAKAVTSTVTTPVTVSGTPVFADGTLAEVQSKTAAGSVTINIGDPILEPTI
Test: complex formed by mixing 10 nmol of each in 25 mM CaCl2 at 4 °C for 24 h; binding inferred from increased tagatose conversion activity, no direct binding assay

B1: arabinose isomerase (LsAraA) linked with the dockerin module of the endo-β-1,4-glucanase B gene (enzyme, Clostridium cellulovorans, not shown: small tags and cut ends)
chain: SLSARVSFKKHVKKGVFIMLNTENYEFWFVTGSQSLYGEETLRSVEKDAKEIVEKLNASRQLPYPIVFKLVATTADNITKVMKEANYNDHVAGVITWMHTFSPAKNWIRGTKLLQKPLLHLATQFLNKIPYDTIDFDYMNLNQSAHGDREYAFINARLRKNNKIISGYWGDEDVQKAMAKWMDVAVAYNESFKIKVVTFADKMRNVAVTDGDKVEAQIKFGWTVDYWGVGDLVAEVNAVSEADIDAKYADLQKEYDFVEGQNTPEKFEHNVKYQIREYFGLKKFMDDRGYTAFTTNFEDLVGLEQLPGLAAQLLMAEGYGFAGEGDWKTAALDRLLKIMAHNEKTVFMEDYTLDLRQGHEAILGSHMLEVDPSIASDKPRVEVHPLDIGDKDDPARLVFTGMQGDAVDVTMADYGDEFKLMSYDVRGNKPEADTPHLPVAKQLWTPKQGLREGAVGWLTVGGGHHTVLSFAVDSEQLQDLSHLFDLTYVNIKTQTQTSYSLGDVNKDGKVNAIDYAVLKSILLGTNTNVDLSVSDMNKDGKVNALDLAVLKKMLLS
binding: binds
